The values that follow come from patent publication US20130116291A1, “ASSOCIATION OF XANTHINE OXIDASE INHIBITORS AND STATINS AND USE THEREOF” (Menarini International Operations Luxembourg S.A., priority 2010, published 2013).

In the assay the test system is Wistar rats subjected to a cholesterol-rich (2%) diet. Kind of assay: Hypocholesterolemic activity in rats on a cholesterol-rich diet (plasma total cholesterol). In kind it is in vivo, rat. Conditions: 2.5 mg/Kg orally by gavage once per day for 4 weeks. The protocol: Plasma levels of total cholesterol were measured with a standard colorimetric enzymatic method. […] Plasma levels of total cholesterol were determined at one-week intervals. Blood was collected from a tail vein.

Structures are written as SMILES.

In the case of `CC(C)c1c(C(=O)Nc2ccccc2)c(-c2ccccc2)c(-c2ccc(F)cc2)n1CC[C@@H](O)C[C@@H](O)CC(=O)O` [Atorvastatin, atorvastatin], the “Diminution of plasma total cholesterol in rats” value amounted to 25%.
